Binding data for 1 substance are collected here from publication doi:10.1101/2023.01.13.523954.

Sequences of proteins named here, by UniProt entry; tags and fusion partners are left off.
UniProt Q9HWE5, whole entry: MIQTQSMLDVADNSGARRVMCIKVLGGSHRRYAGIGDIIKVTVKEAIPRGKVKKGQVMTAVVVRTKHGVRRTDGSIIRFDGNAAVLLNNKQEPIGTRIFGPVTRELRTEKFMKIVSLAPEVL
UniProt Q02SH2, whole entry: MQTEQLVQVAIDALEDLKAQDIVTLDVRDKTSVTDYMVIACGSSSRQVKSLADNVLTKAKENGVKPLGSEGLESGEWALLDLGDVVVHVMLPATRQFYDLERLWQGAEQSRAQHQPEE

The target in this test is rplN (P. aeruginosa (endogenous in strain PAO1)) (UniProt Q9HWE5). The experiment in a line: cross-linking.

These are yes or no findings as the source states them, for the method shown. In cells and extracts the contact can be indirect. Some binding calls cover weakened binding; strength is not graded here.

As for “ribosome silencing factor rsfS (from UniProt Q02SH2 1-118)”, the binding entry is on record as “binds”.
